Results deposited as PubChem BioAssay AID652272 (Drosophila RNAi Screening Center, 2013)

Screen: 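Genes whose knock-down decreases or increases Hedgehog reporter output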 (primary screen)
Cells: Drosophila clone 8 (Cl8) cells
Knock-down reagent: long dsRNA against Drosophila genes
Read-out: 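Plate reader light from a firefly reporter under a ptc promoter fragment that responds to Hedgehog, with Renilla light as transfection reference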
Direction: firefly Hh reporter signal: higher = more ptc reporter light; Renilla reference signal: higher = more Renilla control light
Hit rule: 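Hit when the z-score averaged over two replicates is under -2 or over +3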
Calls: active = hit: reporter lowered or raised; inactive = not a hit
The deposit covers about 21,000 reagents; shown is a random part of those with a known target gene and a result. Of all reagents, 503 (2.4%) got an active call. 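Raw plate light values, not normalised; calls rest on replicate z-scores that were not deposited; hits include reporter decreases as well as increases.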 Reagents against one gene are numbered here. Names joined by + are all predicted targets of the reagent. Reagent sequences are not shown. Not given: the amount of reagent, the time to read-out.

gene knocked down	reagent	firefly Hh reporter signal, replicate 1	firefly Hh reporter signal, replicate 2	firefly Hh reporter signal, replicate 3	Renilla reference signal, replicate 1	Renilla reference signal, replicate 2	Outcome
CG14963	1	82968	27682		2372	285	inactive
arg	1	1.86e5	1.16e5		3621	4182	inactive
Cyp4p3	1	1.40e5	76322		4374	6432	inactive
fig	1	81879	1.63e5		1624	7920	inactive
CG15332	1	64917	1.70e5		2240	6421	inactive
tant	1	26738	35249		4131	3528	inactive
CG7025	1	1.48e5	63692		3893	4886	inactive
Syn1	1	1.33e5	1.20e5		4592	6931	inactive
Syn1	2	96480	1.05e5		3114	5992	inactive
CG18528	1	5.81e5	1.09e5		30994	3399	inactive
CG31835 + CG42585	1	1.25e5	1.79e5		3723	7840	inactive
CG15221	1	68613	2.51e5		2212	9393	inactive
CG1636	1	1.40e5	7.18e5	1.05e5	3353	39473	inactive
CG11381	1	43370	1.06e5		1339	4528	inactive
CG34199	1	1.01e5	2.46e5		2802	9814	inactive
meigo	1	4.70e5	63648		30872	438	inactive
HGTX	1	2.17e5			4745		inactive
HGTX	2	96420			4438	2928	inactive
CG3702	1	89853	83381		3876	3376	inactive
CG5122	1	1.29e5	56279		3242	5270	inactive
ND-20	1	1.26e5	1.01e5		3497	2396	inactive

Entries listed so far whose target name begins with S or s (2):
gene knocked down	reagent	firefly Hh reporter signal, replicate 1	firefly Hh reporter signal, replicate 2	firefly Hh reporter signal, replicate 3	Renilla reference signal, replicate 1	Renilla reference signal, replicate 2	Outcome
Syn1	1	1.33e5	1.20e5		4592	6931	inactive
Syn1	2	96480	1.05e5		3114	5992	inactive

Continued.
gene knocked down	reagent	firefly Hh reporter signal, replicate 1	firefly Hh reporter signal, replicate 2	firefly Hh reporter signal, replicate 3	Renilla reference signal, replicate 1	Renilla reference signal, replicate 2	Outcome
Faf2	1	63206	47830		2832	1625	inactive
CSN1b	1	1.05e5	77334		3652	2881	inactive
CAHbeta	1	1.02e5	68733		4390	2722	inactive
Sema1a	1	93253	54177		2581	4166	inactive
shd	1	95080			2891	3045	inactive
Jhedup	1	82487	48748		2360	3029	inactive
CG10959	1	88603	1.05e5		2250	2900	inactive
Bka	1	81130	37001		2144	4155	inactive
Hsc70-2	1	79143	50368		2424	1571	inactive
tplus3a + tplus3b	1	1.06e5	1.89e5		3377	10052	inactive
CG4455	1	53884	50662		2482	1970	inactive
Gadd45	1	99836	45920		2822	3844	inactive
CG31550	1	65223	1.13e5		2577	2896	inactive
CG31550	2	1.30e5	1.13e5		5177	4250	inactive
hd	1	56274	1.13e5		2196	3563	inactive
Cyp12a4	1	4.72e5	86716		24333	1989	inactive
CG14230	1	61484	79136		1431	2664	inactive
Polr3F	1	6.10e5	1.91e5		31565	4184	inactive
